For at least one compound, name, drawing or mass did not settle the structure.
Tested on: conditioned reflex (CR) / unconditioned reflex (UR)
Assay: Screening test, learning and retention during one session conditioning
Type: in vivo, rats
Protocol: I was elaborated for studing learning and retention of rats during one session conditioning.
During conditioning rats are trained to jump onto the top of glass cylinder by the electric foot-shock (110 V). The escape reaction (unconditioned reflex, UR) is paired with a bell as conditioned stimulus. The criterion of learning is that conditioned reflex (CR) should be elicited 10 times with 10 s intervals without reinforcement. Retention of CR is taken positive when 24 h following the experiment CR can be elicited. In these experiments animals are distributed into 4 categories on the basis of their learning ability.

c1ccc2c(c1)ncc1ncsc12 [Thiazolo[4,5-c]quinoline-ethanesulfonate, thiazolo[4,5-c]quinoline-ethanesulfonate]
inhibition of development of conditioned reflex (10 mg/kg): strong inhibition
inhibition of development of conditioned reflex (25 mg/kg): complete inhibition

Reference: patent US4904669A, “Thiazolo/4,5-c/quinolines as major tranquilizers” (EGIS Gyogyszergyar, priority 1985, dated 1990)
